Values from PubChem BioAssay AID1259405 (NCATS, 2018).
Purpose: 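Mouse-designed siRNAs used to find CHO productivity engineering targets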 (primary screen). System: Chinese hamster CHO-K1 ovary cells with stable secreted eGFP expression. Knock-down reagent: single siRNA against mouse genes, 0.8 pmol siRNA per well (2 µl of 400 nM stock). Timing: 3 days. Measured: 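Per-well intracellular GFP measured by laser scanning cytometry, plus viability from ATP luminescence, each relative to plate median of non-targeting control wells, in %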. Scale: GFP, % of control: higher = more GFP per well, higher productivity; viability (ATP), % of control: higher = more viable cells (more ATP). Rule for the call: 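Called active when intracellular GFP, relative to negative control, is at or above 120%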.
Here is one part, drawn at random, of about 50,000 reagents tested. Over the whole deposit, about 4,000 (8%) got an active call. 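Mouse siRNA library applied to hamster cells; one well for each siRNA.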 Unmarked entries are inactive. Reagents against one gene are numbered here.

gene knocked down | reagent no. | GFP, % of control | viability (ATP), % of control
Slc9a1 | 1 | 67.5 | 71.6
Slc9a1 | 2 | 111 | 91.8
Slc9a1 | 3 | 79.8 | 75.7
Ddx11 (DEAD/H box helicase 11) | 1 | 90.9 | 62.8
Ddx11 (DEAD/H box helicase 11) | 2 | 81.1 | 63.1
Ddx11 (DEAD/H box helicase 11) | 3 | 84.8 | 110
Dppa3 (developmental pluripotency-associated 3) | 1 | 102 | 88.4
Dppa3 (developmental pluripotency-associated 3) | 2 | 137 (active) | 110
Dppa3 (developmental pluripotency-associated 3) | 3 | 80.7 | 82.1
Mtcl3 (MTCL family member 3) | 1 | 68.1 | 88.9
Mtcl3 (MTCL family member 3) | 2 | 47.6 | 59.9
Mtcl3 (MTCL family member 3) | 3 | 97.1 | 142
Ccin (calicin) | 1 | 78.4 | 65
Ccin (calicin) | 2 | 79.9 | 80.1
Vpreb1a (V-set pre-B cell surrogate light chain 1A) | 1 | 37.3 | 44.5
Vpreb1a (V-set pre-B cell surrogate light chain 1A) | 2 | 80.1 | 50.3
Vpreb1a (V-set pre-B cell surrogate light chain 1A) | 3 | 82.2 | 70.2
Ccdc83 (coiled-coil domain containing 83) | 1 | 84.2 | 82.8
Ccdc83 (coiled-coil domain containing 83) | 2 | 56 | 98.6
Ccdc83 (coiled-coil domain containing 83) | 3 | 89 | 82
Mrps14 (mitochondrial ribosomal protein S14) | 1 | 77.7 | 102
Mrps14 (mitochondrial ribosomal protein S14) | 2 | 50.3 | 43.6
Mrps14 (mitochondrial ribosomal protein S14) | 3 | 131 (active) | 75.5
Catsperd (cation channel sperm associated auxiliary subunit delta) | 1 | 101 | 112
Catsperd (cation channel sperm associated auxiliary subunit delta) | 2 | 100 | 95.7
Catsperd (cation channel sperm associated auxiliary subunit delta) | 3 | 114 | 116
Uqcrh (ubiquinol-cytochrome c reductase hinge protein) | 1 | 84.7 | 87.3
Uqcrh (ubiquinol-cytochrome c reductase hinge protein) | 2 | 37.7 | 46.8
Uqcrh (ubiquinol-cytochrome c reductase hinge protein) | 3 | 64.1 | 47.2
2810032G03Rik (RIKEN cDNA 2810032G03 gene) | 1 | 79.7 | 74
2810032G03Rik (RIKEN cDNA 2810032G03 gene) | 2 | 125 (active) | 63.7
2810032G03Rik (RIKEN cDNA 2810032G03 gene) | 3 | 73.9 | 72.1
Or5p53 (olfactory receptor family 5 subfamily P member 53) | 1 | 87.9 | 81.9
Or5p53 (olfactory receptor family 5 subfamily P member 53) | 2 | 88 | 89.4
Or5p53 (olfactory receptor family 5 subfamily P member 53) | 3 | 55.4 | 52.8
Itih2 (inter-alpha trypsin inhibitor, heavy chain 2) | 1 | 82.3 | 96.3
Itih2 (inter-alpha trypsin inhibitor, heavy chain 2) | 2 | 80.9 | 85.4
Itih2 (inter-alpha trypsin inhibitor, heavy chain 2) | 3 | 73.4 | 62.5
Capstert (catsper channel auxiliary subunit tau) | 1 | 72.3 | 49.1
Capstert (catsper channel auxiliary subunit tau) | 2 | 59.5 | 48.3
Capstert (catsper channel auxiliary subunit tau) | 3 | 70.4 | 90.5
Gpn1 (GPN-loop GTPase 1) | 1 | 81.4 | 90.3
Gpn1 (GPN-loop GTPase 1) | 2 | 98.2 | 105
1700123O20Rik (RIKEN cDNA 1700123O20 gene) | 1 | 80 | 73.4
1700123O20Rik (RIKEN cDNA 1700123O20 gene) | 2 | 82.9 | 72.2
1700123O20Rik (RIKEN cDNA 1700123O20 gene) | 3 | 67.4 | 62.1
Npffr2 (neuropeptide FF receptor 2) | 1 | 45.9 | 42
Npffr2 (neuropeptide FF receptor 2) | 2 | 94.3 | 99.8
Npffr2 (neuropeptide FF receptor 2) | 3 | 48.7 | 70.2
Fxyd5 (FXYD domain-containing ion transport regulator 5) | 1 | 130 (active) | 112
Fxyd5 (FXYD domain-containing ion transport regulator 5) | 2 | 97.5 | 93.2
Pde6a (phosphodiesterase 6A, cGMP-specific, rod, alpha) | 1 | 93.3 | 97.4
Pde6a (phosphodiesterase 6A, cGMP-specific, rod, alpha) | 2 | 110 | 56.6
Pde6a (phosphodiesterase 6A, cGMP-specific, rod, alpha) | 3 | 105 | 69.4
Atic | 1 | 100 | 76.3
Atic | 2 | 98.2 | 98.3
Atic | 3 | 67.8 | 84.2
Saxo2 (stabilizer of axonemal microtubules 2) | 1 | 81.6 | 86.8
Saxo2 (stabilizer of axonemal microtubules 2) | 2 | 68.1 | 69.7
Saxo2 (stabilizer of axonemal microtubules 2) | 3 | 122 (active) | 110
Cdc25c (cell division cycle 25C) | 1 | 114 | 84.9
Cdc25c (cell division cycle 25C) | 2 | 94.4 | 87.2
Cdc25c (cell division cycle 25C) | 3 | 84.3 | 71.9
Slx9 (SLX9 ribosome biogenesis factor) | 1 | 64.3 | 77.6
Slx9 (SLX9 ribosome biogenesis factor) | 2 | 107 | 57.2
Slx9 (SLX9 ribosome biogenesis factor) | 3 | 51.1 | 74.1
Glul (glutamate-ammonia ligase) | 1 | 87.5 | 84.1
Glul (glutamate-ammonia ligase) | 2 | 87.8 | 90.7
Glul (glutamate-ammonia ligase) | 3 | 52.6 | 38.4
Dnajb11 (DnaJ heat shock protein family (Hsp40) member B11) | 1 | 44.5 | 54.6
Dnajb11 (DnaJ heat shock protein family (Hsp40) member B11) | 2 | 85 | 69.1
Dnajb11 (DnaJ heat shock protein family (Hsp40) member B11) | 3 | 62.7 | 107
Wee2 (WEE1 homolog 2 (S. pombe)) | 1 | 115 | 92.1
Wee2 (WEE1 homolog 2 (S. pombe)) | 2 | 64.1 | 72.9
Wee2 (WEE1 homolog 2 (S. pombe)) | 3 | 67.2 | 71.9
Or2m13 (olfactory receptor family 2 subfamily M member 13) | 1 | 92.7 | 104
Or2m13 (olfactory receptor family 2 subfamily M member 13) | 2 | 74.8 | 67.7
Or2m13 (olfactory receptor family 2 subfamily M member 13) | 3 | 71 | 98.4
Slc35g3 | 1 | 44.3 | 34.9
Slc35g3 | 2 | 72.4 | 80.6
Slc35g3 | 3 | 115 | 127
Lrig2 (leucine-rich repeats and immunoglobulin-like domains 2) | 1 | 80.1 | 81.8
Lrig2 (leucine-rich repeats and immunoglobulin-like domains 2) | 2 | 88.2 | 82.2
Lrig2 (leucine-rich repeats and immunoglobulin-like domains 2) | 3 | 61.7 | 70.1

Only “GFP, % of control”, for 8 of the entries above:
Or5p53 (olfactory receptor family 5 subfamily P member 53) #2 = 88
Or5p53 (olfactory receptor family 5 subfamily P member 53) #3 = 55.4
Itih2 (inter-alpha trypsin inhibitor, heavy chain 2) #1 = 82.3
Itih2 (inter-alpha trypsin inhibitor, heavy chain 2) #2 = 80.9
Itih2 (inter-alpha trypsin inhibitor, heavy chain 2) #3 = 73.4
Capstert (catsper channel auxiliary subunit tau) #1 = 72.3
Capstert (catsper channel auxiliary subunit tau) #2 = 59.5
Capstert (catsper channel auxiliary subunit tau) #3 = 70.4
